Experimental findings from article PMC5996148 are described below.

Test systems include KCNK7 (human); KCNN3 (human); KCNS2 (human); KCTD10 (human); KCTD7 (human); KEL (human); KHK (human); KIAA0157 (human); KIAA0174 (human); KIAA0513 (human); KIAA0562 (human); KIAA0652 (human); KIAA1576 (human); KIAA1598 (human); KIAA1609 (human); KIAA1754 (human); KIF6 (human); KIFC3 (human); KIR2DL3 (human).
Assay in all cases: protein microarray (ProtoArray v5.0), streptavidin-Alexa Fluor 647
What all share (conditions): 3'-biotin; 20 mM Tris (pH 7.5), 5 mM MgCl2, 100 mM KCl, 0.1% Tween-20, A/T-rich and random oligonucleotide blockers; temperature not stated; high values mean tight binding

For a further test, the target named is T1, KCNRG (UniProt Q8N5I3).
T1 sequence: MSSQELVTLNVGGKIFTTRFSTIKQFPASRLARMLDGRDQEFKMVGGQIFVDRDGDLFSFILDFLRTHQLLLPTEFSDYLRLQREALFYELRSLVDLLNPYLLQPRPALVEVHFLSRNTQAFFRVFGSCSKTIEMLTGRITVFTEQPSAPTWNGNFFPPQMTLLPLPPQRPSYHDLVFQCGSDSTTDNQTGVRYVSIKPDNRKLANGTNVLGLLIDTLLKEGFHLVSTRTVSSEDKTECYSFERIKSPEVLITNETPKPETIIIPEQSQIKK

Where “and” joins values, the source holds several entries; their conditions need not be identical. Identical values can stand only once. Some of the results follow. For some assays here: Construct or isoform of the protein are uncertain.

In the case of “GGGAGGCTGAGGCAGG [G4-1 biotinylated (PQS2)]”, the binding signal is -0.331 z-score with KCNK7 (human); -0.274 z-score in the test on KCNN3 (human); -0.325 z-score with KCNRG; -0.346 z-score in the test on KCNS2 (human); -0.29 z-score in the test on KCTD10 (human); -0.279 z-score in the test on KCTD7 (human). Further, the binding signal was -0.28 z-score with KEL (human); -0.353 z-score in the test on KHK (human); -0.296 z-score with KIAA0157 (human); -0.344 z-score in the test with KIAA0174 (human); -0.338 z-score in the test with KIAA0513 (human); -0.333 z-score with KIAA0562 (human). In addition, the binding signal is -0.315 z-score and -0.289 z-score with KIAA0652 (human); -0.349 z-score in the test with KIAA1576 (human); -0.351 z-score in the test with KIAA1598 (human); -0.335 z-score in the test on KIAA1609 (human); -0.333 z-score in the test on KIAA1754 (human); -0.306 z-score in the test on KIF6 (human). For the same sequence, the binding signal in the test with KIFC3 (human) was -0.314 z-score; in the test with KIR2DL3 (human) it was -0.342 z-score.
